Data source: PubChem BioAssay AID1259254 (NCATS, 2017)
This is one part, drawn at random, of about 59,000 reagents. About 1,550 of all reagents (2.6%) were called active. 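G2 share is only a proxy for re-replication; each gene was hit by three separate siRNAs, and active genes were retested.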 Reagents against one gene are numbered here. Further read-outs or replicates are left out here. Not stated in the record: the amount of reagent.

Assay: 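Gene knock-downs that lead to re-replication, shown by excess G2 DNA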 (primary screen)
System: human HCT116 colorectal cancer cells
Reagent: single siRNA against human genes
Timing: 3 days
Measurement: 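Imaged Hoechst DNA stain sorts each cell into a cycle phase by DNA amount; per plate, G2 fraction set to 0% for non-targeting and 100% for GMNN siRNA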
Reading the numbers: G2 robust z-score and G2 cells, % of GMNN control: higher = more G2 cells, more excess DNA replication
Active means: 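An siRNA counts as active if its G2 robust z-score lies at least 5 MADs above the screen median; here such calls match roughly 38% of GMNN control or more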

After knock-down of HCN2 #1, the screen gave G2 robust z-score 0.0697; G2 cells, % of GMNN control 3.46; inactive. HCN2 #2 scored G2 robust z-score 1.66; G2 cells, % of GMNN control 14.6; inactive. For HCN2 #3 the deposit lists G2 robust z-score -0.876; G2 cells, % of GMNN control -3.2; inactive. Knock-down of HCK #1 gave: G2 robust z-score -1.73; G2 cells, % of GMNN control -9.21; inactive. Against HCK #2, the entry reads G2 robust z-score -1.08; G2 cells, % of GMNN control -4.66; inactive. After knock-down of HCK #3, the screen gave G2 robust z-score 0.799; G2 cells, % of GMNN control 8.59; inactive.

For MED6 #1, the values are G2 robust z-score -0.917; G2 cells, % of GMNN control -3.48; inactive. After knock-down of MED6 #2, the screen gave G2 robust z-score 6.72; G2 cells, % of GMNN control 50.3; active. MED6 #3 gave G2 robust z-score 0.519; G2 cells, % of GMNN control 6.62; inactive.

Records listed so far marked active, once more:
MED6 #2 — G2 robust z-score = 6.72; G2 cells, % of GMNN control = 50.3; call = active

Additional entries:
With knock-down of RAX2 #1, the record shows G2 robust z-score 0.979; G2 cells, % of GMNN control 9.86; inactive. RAX2 #2 gave G2 robust z-score 0.726; G2 cells, % of GMNN control 8.08; inactive. Knock-down of RAX2 #3 came out at: G2 robust z-score 1.05; G2 cells, % of GMNN control 10.3; inactive. For TLR8 #1 the deposit lists G2 robust z-score 3.35; G2 cells, % of GMNN control 26.5; inactive. For TLR8 #2, the values are G2 robust z-score -0.318; G2 cells, % of GMNN control 0.729; inactive. After knock-down of TLR8 #3 the results were G2 robust z-score -0.935; G2 cells, % of GMNN control -3.61; inactive.

TJAP1 #1 scored G2 robust z-score -0.115; G2 cells, % of GMNN control 2.16; inactive. Depletion of TJAP1 #2 resulted in: G2 robust z-score 0.818; G2 cells, % of GMNN control 8.73; inactive. Against TJAP1 #3, the values are G2 robust z-score -1.07; G2 cells, % of GMNN control -4.56; inactive.
